The supplement of paper PMC6411743
± gives the standard deviation of the averaged measurements. This is a selection; strong and weak results do not stand in their true shares. Most entries show no effect beyond the scatter of the controls.

Sequences of proteins named here, by UniProt entry; tags and fusion partners are left off. A change or cut given only in a name is not applied to a line headed by its entry.
UniProt O43920, whole entry: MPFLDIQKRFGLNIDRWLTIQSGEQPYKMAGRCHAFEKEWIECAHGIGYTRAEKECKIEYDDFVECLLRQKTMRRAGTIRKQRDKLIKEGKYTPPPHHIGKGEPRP
UniProt O43665: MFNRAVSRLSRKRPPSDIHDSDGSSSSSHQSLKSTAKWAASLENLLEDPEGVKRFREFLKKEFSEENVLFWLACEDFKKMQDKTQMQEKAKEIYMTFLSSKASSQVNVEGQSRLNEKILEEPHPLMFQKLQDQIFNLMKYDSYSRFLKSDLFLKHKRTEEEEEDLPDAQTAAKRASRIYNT
UniProt O00443: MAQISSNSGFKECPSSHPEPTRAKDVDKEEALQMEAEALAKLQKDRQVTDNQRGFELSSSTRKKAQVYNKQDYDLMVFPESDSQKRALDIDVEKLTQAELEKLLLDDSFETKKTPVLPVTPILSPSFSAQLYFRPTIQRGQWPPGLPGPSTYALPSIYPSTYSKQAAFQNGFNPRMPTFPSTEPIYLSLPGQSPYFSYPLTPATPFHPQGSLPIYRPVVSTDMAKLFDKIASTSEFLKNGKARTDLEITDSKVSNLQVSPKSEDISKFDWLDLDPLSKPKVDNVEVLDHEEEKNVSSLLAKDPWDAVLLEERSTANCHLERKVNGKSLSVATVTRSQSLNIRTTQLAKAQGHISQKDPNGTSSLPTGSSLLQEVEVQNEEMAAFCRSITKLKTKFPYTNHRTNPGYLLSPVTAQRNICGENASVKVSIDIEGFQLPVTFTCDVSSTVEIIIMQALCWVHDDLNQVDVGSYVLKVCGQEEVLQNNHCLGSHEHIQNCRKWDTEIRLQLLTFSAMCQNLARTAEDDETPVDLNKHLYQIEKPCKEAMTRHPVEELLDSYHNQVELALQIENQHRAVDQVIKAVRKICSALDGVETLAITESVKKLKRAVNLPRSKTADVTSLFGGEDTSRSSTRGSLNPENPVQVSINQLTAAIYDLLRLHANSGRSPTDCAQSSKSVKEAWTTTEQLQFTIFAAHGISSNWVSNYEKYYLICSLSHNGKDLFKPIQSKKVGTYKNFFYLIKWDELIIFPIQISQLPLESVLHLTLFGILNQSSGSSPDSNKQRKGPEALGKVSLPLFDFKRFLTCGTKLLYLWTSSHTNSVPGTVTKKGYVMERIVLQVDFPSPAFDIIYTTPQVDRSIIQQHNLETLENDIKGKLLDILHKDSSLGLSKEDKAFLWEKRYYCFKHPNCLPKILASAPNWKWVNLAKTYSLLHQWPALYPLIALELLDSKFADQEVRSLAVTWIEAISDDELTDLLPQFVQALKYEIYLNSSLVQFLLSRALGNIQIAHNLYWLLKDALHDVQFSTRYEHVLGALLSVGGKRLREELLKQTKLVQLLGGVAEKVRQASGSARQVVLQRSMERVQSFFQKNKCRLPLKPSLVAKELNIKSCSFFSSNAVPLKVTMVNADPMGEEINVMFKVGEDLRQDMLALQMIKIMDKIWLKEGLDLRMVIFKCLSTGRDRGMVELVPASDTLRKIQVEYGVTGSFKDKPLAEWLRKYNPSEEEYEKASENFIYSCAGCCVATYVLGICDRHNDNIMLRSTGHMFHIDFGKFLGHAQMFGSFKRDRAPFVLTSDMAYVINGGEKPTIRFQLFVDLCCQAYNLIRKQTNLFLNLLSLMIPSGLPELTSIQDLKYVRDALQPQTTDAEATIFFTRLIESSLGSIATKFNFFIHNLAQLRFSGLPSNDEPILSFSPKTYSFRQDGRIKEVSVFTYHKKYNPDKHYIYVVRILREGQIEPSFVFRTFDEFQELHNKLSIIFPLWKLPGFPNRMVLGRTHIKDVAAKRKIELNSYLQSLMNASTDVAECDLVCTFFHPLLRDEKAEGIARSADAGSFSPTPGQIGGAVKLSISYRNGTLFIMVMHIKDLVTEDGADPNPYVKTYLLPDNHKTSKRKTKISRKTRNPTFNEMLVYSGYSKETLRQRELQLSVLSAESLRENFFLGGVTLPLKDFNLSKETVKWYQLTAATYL
UniProt O43736: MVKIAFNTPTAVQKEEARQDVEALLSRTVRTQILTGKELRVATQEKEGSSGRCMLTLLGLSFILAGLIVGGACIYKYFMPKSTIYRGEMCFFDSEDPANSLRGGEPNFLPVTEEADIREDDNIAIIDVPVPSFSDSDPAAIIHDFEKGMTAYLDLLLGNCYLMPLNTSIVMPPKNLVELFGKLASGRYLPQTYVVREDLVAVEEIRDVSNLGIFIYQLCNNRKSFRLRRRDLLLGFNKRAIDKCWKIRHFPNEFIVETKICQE
UniProt O15042: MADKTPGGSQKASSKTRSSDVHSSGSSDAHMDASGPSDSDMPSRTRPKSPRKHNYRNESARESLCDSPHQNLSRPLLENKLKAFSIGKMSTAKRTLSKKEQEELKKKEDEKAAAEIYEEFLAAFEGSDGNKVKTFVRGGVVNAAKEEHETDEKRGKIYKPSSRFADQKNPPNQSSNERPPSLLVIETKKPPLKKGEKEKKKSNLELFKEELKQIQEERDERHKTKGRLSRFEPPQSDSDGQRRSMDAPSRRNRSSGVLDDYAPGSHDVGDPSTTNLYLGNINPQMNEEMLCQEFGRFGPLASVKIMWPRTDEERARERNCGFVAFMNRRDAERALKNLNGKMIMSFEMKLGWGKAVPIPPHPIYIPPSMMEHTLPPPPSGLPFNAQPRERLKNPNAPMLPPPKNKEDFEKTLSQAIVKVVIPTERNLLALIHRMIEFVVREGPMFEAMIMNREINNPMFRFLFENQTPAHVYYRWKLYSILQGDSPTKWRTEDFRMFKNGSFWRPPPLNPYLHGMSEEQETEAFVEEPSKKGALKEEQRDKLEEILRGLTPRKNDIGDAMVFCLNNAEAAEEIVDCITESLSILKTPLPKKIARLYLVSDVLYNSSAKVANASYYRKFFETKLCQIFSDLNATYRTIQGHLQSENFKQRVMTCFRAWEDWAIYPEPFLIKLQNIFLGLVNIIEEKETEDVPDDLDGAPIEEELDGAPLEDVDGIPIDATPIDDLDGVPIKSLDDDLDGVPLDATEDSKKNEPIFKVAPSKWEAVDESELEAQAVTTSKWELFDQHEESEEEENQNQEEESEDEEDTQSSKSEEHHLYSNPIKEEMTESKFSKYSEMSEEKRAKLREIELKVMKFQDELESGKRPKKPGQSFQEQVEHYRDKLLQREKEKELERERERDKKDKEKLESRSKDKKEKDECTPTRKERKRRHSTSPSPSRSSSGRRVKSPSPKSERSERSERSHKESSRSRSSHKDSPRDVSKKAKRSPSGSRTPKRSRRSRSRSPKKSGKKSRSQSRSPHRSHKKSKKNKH
UniProt O43903, whole entry: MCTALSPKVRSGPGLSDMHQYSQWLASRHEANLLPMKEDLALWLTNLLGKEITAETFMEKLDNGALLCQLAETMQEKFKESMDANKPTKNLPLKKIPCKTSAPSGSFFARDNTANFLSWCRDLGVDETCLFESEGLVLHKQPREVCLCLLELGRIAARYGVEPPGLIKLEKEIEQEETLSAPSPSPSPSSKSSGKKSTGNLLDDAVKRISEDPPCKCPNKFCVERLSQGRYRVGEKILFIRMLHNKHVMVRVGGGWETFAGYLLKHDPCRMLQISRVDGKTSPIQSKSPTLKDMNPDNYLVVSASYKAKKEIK
UniProt O14920: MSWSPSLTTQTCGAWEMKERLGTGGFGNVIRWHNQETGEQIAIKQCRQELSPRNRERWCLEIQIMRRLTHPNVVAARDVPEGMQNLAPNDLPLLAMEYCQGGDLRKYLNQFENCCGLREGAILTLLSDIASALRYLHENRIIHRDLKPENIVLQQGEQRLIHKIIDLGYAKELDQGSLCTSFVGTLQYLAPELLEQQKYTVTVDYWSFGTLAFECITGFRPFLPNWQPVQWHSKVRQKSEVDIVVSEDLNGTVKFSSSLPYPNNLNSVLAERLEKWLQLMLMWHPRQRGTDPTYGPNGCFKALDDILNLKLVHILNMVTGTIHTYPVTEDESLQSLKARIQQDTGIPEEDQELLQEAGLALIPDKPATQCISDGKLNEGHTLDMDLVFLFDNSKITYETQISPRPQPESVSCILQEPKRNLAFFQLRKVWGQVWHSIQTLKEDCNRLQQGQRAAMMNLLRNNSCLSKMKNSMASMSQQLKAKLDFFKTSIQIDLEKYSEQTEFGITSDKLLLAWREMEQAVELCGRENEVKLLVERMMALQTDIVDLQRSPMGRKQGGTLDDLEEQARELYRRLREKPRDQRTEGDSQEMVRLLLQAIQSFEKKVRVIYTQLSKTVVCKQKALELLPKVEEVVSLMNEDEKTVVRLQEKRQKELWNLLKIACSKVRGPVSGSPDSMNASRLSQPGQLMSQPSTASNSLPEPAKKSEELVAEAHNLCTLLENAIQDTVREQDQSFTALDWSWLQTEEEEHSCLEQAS
UniProt O15397, whole entry: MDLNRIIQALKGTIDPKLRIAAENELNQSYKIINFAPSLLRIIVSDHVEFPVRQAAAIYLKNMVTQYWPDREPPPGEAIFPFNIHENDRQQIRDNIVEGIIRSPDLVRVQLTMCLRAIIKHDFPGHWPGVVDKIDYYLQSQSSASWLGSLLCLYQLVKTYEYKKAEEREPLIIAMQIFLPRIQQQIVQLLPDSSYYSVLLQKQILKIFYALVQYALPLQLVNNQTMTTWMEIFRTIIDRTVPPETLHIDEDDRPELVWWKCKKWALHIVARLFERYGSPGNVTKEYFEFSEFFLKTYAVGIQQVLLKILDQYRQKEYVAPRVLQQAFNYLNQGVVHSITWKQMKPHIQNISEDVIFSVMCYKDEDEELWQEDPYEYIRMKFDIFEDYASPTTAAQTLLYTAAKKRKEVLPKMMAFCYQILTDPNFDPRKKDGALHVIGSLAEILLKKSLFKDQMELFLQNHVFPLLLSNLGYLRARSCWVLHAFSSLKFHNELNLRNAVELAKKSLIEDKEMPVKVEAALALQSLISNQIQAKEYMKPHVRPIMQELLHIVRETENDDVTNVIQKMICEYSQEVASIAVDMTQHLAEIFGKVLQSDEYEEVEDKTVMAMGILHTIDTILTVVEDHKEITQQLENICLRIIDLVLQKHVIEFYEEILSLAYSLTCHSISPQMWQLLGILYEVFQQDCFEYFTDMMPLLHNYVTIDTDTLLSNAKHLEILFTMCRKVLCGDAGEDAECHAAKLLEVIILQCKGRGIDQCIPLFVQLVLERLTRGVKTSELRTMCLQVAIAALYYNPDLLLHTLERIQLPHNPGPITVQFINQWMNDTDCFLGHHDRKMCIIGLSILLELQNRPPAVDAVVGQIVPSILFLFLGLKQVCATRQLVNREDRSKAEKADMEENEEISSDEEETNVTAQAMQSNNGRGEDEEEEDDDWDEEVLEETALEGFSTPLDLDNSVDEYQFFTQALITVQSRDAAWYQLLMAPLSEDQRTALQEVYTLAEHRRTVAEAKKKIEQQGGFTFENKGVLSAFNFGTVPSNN
UniProt O14639: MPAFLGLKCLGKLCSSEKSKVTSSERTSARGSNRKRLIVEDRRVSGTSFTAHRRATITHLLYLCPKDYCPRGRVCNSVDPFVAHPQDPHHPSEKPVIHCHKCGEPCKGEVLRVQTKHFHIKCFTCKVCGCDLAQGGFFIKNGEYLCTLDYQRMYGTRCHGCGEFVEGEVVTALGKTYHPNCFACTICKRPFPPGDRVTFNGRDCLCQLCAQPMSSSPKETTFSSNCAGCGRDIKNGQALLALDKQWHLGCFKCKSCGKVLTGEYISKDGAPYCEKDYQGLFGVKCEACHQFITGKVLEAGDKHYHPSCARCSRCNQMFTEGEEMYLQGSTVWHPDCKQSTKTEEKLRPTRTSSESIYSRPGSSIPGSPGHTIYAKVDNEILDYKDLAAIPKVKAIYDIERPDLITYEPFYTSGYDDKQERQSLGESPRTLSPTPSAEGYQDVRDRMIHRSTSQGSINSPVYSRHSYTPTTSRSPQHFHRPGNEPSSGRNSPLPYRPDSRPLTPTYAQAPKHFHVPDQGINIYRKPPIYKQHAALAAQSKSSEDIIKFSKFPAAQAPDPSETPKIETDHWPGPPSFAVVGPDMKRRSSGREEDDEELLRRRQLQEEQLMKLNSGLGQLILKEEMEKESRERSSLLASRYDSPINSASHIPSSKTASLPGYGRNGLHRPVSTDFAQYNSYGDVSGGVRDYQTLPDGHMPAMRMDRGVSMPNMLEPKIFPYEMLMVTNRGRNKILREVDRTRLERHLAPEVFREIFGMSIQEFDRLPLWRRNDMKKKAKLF
UniProt O00115: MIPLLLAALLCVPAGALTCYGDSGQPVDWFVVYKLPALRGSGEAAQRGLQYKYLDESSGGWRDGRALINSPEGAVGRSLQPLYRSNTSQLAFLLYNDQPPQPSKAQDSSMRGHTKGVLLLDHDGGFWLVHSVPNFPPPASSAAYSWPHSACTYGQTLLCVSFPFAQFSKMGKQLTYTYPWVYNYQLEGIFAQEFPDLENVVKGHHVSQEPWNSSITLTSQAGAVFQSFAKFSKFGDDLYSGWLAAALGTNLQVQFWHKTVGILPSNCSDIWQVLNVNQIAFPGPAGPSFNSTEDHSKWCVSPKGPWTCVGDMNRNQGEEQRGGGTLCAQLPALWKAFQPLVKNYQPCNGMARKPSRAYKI

Compound: Nc1ncnc2c1ncn2[C@@H]1O[C@H](COP(=O)(O)OP(=O)(O)OP(=O)(O)O)[C@@H](O)[C@H]1O [adenosine triphosphate]
Test: NP40-soluble protein abundance relative to vehicle (solubility fold change) (ratio); higher = more soluble protein in presence of ATP
Outline: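 Values are fold changes against the detergent-processed vehicle, based on vsn-normalised intensities. Jurkat crude lysate was treated at eight concentrations from 0.1 to 10 mM (10 min at room temperature, then 3 min at 37 °C), solubilised with 0.8% NP40 and benzonase, ultracentrifuged and analysed by TMT-labelled LC-MS/MS over three independent experiments.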

UniProt O43747 and related entries
NP40-soluble protein abundance (concentration: 0.1mM): 1 ± 0.059 | NP40-soluble protein abundance (concentration: 0.5mM): 0.983 ± 0.037

TOR1A (UniProt O14656)
NP40-soluble protein abundance (concentration: 0.1mM): 1 ± 0.048 | NP40-soluble protein abundance (concentration: 0.5mM): 1.03 ± 0.048

TRAFD1 (UniProt O14545)
NP40-soluble protein abundance (concentration: 0.1mM): 1.04 ± 0.069 | NP40-soluble protein abundance (concentration: 0.5mM): 0.974 ± 0.068

M0R3D4 and related entries (UniProt Q9UI14)
NP40-soluble protein abundance (concentration: 0.1mM): 1.07 ± 0.051 | NP40-soluble protein abundance (concentration: 0.5mM): 0.958 ± 0.028

UniProt O00471 and related entries
NP40-soluble protein abundance (concentration: 0.1mM): 1 ± 0.028 | NP40-soluble protein abundance (concentration: 0.5mM): 1.01 ± 0.036

M0R3A8 and related entries (UniProt Q9NWS0)
NP40-soluble protein abundance (concentration: 0.1mM): 1 ± 0.04 | NP40-soluble protein abundance (concentration: 0.5mM): 0.951 ± 0.02

UniProt O15400 and related entries
NP40-soluble protein abundance (concentration: 0.1mM): 0.907 ± 0.088 | NP40-soluble protein abundance (concentration: 0.5mM): 0.868 ± 0.1

UniProt O43303 and related entries
NP40-soluble protein abundance (concentration: 0.1mM): 1.02 ± 0.083 | NP40-soluble protein abundance (concentration: 0.5mM): 1.01 ± 0.058

UniProt O14617-5
NP40-soluble protein abundance (concentration: 0.1mM): 1 ± 0.038 | NP40-soluble protein abundance (concentration: 0.5mM): 1.02 ± 0.023

BACH1 (UniProt O14867)
NP40-soluble protein abundance (concentration: 0.1mM): 0.966 ± 0.029 | NP40-soluble protein abundance (concentration: 0.5mM): 0.938 ± 0.024

UniProt O43439-5|O43439 and related entries
NP40-soluble protein abundance (concentration: 0.1mM): 0.978 ± 0.025 | NP40-soluble protein abundance (concentration: 0.5mM): 0.978 ± 0.074

NDUFS5 (UniProt O43920)
NP40-soluble protein abundance (concentration: 0.1mM): 0.975 ± 0.06 | NP40-soluble protein abundance (concentration: 0.5mM): 0.975 ± 0.021

UniProt O00308 and related entries
NP40-soluble protein abundance (concentration: 0.1mM): 1.04 ± 0.087 | NP40-soluble protein abundance (concentration: 0.5mM): 1.02 ± 0.15

UniProt O43427 and related entries
NP40-soluble protein abundance (concentration: 0.1mM): 1.1 ± 0.078 | NP40-soluble protein abundance (concentration: 0.5mM): 1.07 ± 0.098

UniProt O43665 and related entries
NP40-soluble protein abundance (concentration: 0.1mM): 0.906 ± 0.13 | NP40-soluble protein abundance (concentration: 0.5mM): 0.872 ± 0.16

PIK3C2A (UniProt O00443)
NP40-soluble protein abundance (concentration: 0.1mM): 0.901 ± 0.1 | NP40-soluble protein abundance (concentration: 0.5mM): 0.931 ± 0.16

M0R0P8 and related entries (UniProt Q13459)
NP40-soluble protein abundance (concentration: 0.1mM): 1.03 ± 0.035 | NP40-soluble protein abundance (concentration: 0.5mM): 1.06 ± 0.075

CDC7 (UniProt O00311)
NP40-soluble protein abundance (concentration: 0.1mM): 1.1 ± 0.12 | NP40-soluble protein abundance (concentration: 0.5mM): 1.09 ± 0.14

UniProt O43736 and related entries
NP40-soluble protein abundance (concentration: 0.1mM): 0.954 ± 0.027 | NP40-soluble protein abundance (concentration: 0.5mM): 0.934 ± 0.025

AKAP10 (UniProt O43572)
NP40-soluble protein abundance (concentration: 0.1mM): 1.06 ± 0.077 | NP40-soluble protein abundance (concentration: 0.5mM): 1.07 ± 0.023

UniProt O15042 and related entries
NP40-soluble protein abundance (concentration: 0.1mM): 1.03 ± 0.049 | NP40-soluble protein abundance (concentration: 0.5mM): 1.11 ± 0.075

UniProt O14924 and related entries
NP40-soluble protein abundance (concentration: 0.1mM): 1 ± 0.23 | NP40-soluble protein abundance (concentration: 0.5mM): 1.36 ± 0.44

SGTA (UniProt O43765)
NP40-soluble protein abundance (concentration: 0.1mM): 0.835 ± 0.15 | NP40-soluble protein abundance (concentration: 0.5mM): 0.829 ± 0.2

UniProt O43903
NP40-soluble protein abundance (concentration: 0.1mM): 0.9808 ± 0.0029 | NP40-soluble protein abundance (concentration: 0.5mM): 0.959 ± 0.032

GAK (UniProt O14976)
NP40-soluble protein abundance (concentration: 0.1mM): 0.979 ± 0.032 | NP40-soluble protein abundance (concentration: 0.5mM): 0.987 ± 0.034

UniProt O14775-2|O14775-3
NP40-soluble protein abundance (concentration: 0.1mM): 0.917 ± 0.031 | NP40-soluble protein abundance (concentration: 0.5mM): 0.902 ± 0.015

AQR (UniProt O60306)
NP40-soluble protein abundance (concentration: 0.1mM): 1.08 ± 0.073 | NP40-soluble protein abundance (concentration: 0.5mM): 1.07 ± 0.055

UniProt O00139 and related entries
NP40-soluble protein abundance (concentration: 0.1mM): 1.02 ± 0.047 | NP40-soluble protein abundance (concentration: 0.5mM): 0.961 ± 0.038

UniProt O14920 and related entries
NP40-soluble protein abundance (concentration: 0.1mM): 1.02 ± 0.034 | NP40-soluble protein abundance (concentration: 0.5mM): 1 ± 0.038

IPO8 (UniProt O15397)
NP40-soluble protein abundance (concentration: 0.1mM): 1.02 ± 0.042 | NP40-soluble protein abundance (concentration: 0.5mM): 1.036 ± 0.0044

UniProt O14639 and related entries
NP40-soluble protein abundance (concentration: 0.1mM): 0.977 ± 0.02 | NP40-soluble protein abundance (concentration: 0.5mM): 1.07 ± 0.045

ARPC5 (UniProt O15511)
NP40-soluble protein abundance (concentration: 0.1mM): 0.86 ± 0.14 | NP40-soluble protein abundance (concentration: 0.5mM): 0.869 ± 0.17

POLR3A (UniProt O14802)
NP40-soluble protein abundance (concentration: 0.1mM): 1.02 ± 0.013 | NP40-soluble protein abundance (concentration: 0.5mM): 1.03 ± 0.02

ARID1A (UniProt O14497)
NP40-soluble protein abundance (concentration: 0.1mM): 0.981 ± 0.048 | NP40-soluble protein abundance (concentration: 0.5mM): 1.02 ± 0.082

UniProt O43296
NP40-soluble protein abundance (concentration: 0.1mM): 1.01 ± 0.062 | NP40-soluble protein abundance (concentration: 0.5mM): 0.957 ± 0.039

MAST3 (UniProt O60307)
NP40-soluble protein abundance (concentration: 0.1mM): 1.28 ± 0.072 | NP40-soluble protein abundance (concentration: 0.5mM): 1.28 ± 0.15

UniProt O00115 and related entries
NP40-soluble protein abundance (concentration: 0.1mM): 0.932 ± 0.054 | NP40-soluble protein abundance (concentration: 0.5mM): 0.909 ± 0.015

GTPBP1 (UniProt O00178)
NP40-soluble protein abundance (concentration: 0.1mM): 1.04 ± 0.049 | NP40-soluble protein abundance (concentration: 0.5mM): 1.05 ± 0.0017

UniProt O00592 and related entries
NP40-soluble protein abundance (concentration: 0.1mM): 0.924 ± 0.14 | NP40-soluble protein abundance (concentration: 0.5mM): 0.918 ± 0.11
